Results are given in words; binding and its absence hold for the method and conditions named. Some entries that bind do so weakly or less than the wild type. Ends that are not written are not given here.
Molecular target: active GIP, GIP(1-42)
Assay: sandwich ELISA, anti-total GIP capture antibody, biotinylated m1 as detection antibody at 1 ug/mL, GIP 8.2 to 2000 pg/mL

B1: anti-active GIP monoclonal antibody produced by hybridoma 9B9H5-B9 line (Production Example 1) (antibody, V domains shown)
VH: QVQLQQPGAELVKPGASVKLSCKASGYTFTSFWMHWVIQRPGQGLEWIGEMNPSDGRTHFNEKFKTKATLTIDTSSNTAYMELNSLTSEDSAVYYCARRMEDWGQGTLVTVSA
VL: DIKMTQSPSSMYASLGERVTITCKASQDINSYLGWFQQKPGKSPKTLIYGANRLVDGVPSRFSGSGSGQDYSLTISSLEYDDMGIYYCLQYDEFPLTFGAGTKLELKR
notes: also called anti-active GIP antibody; anti-GIP antibody
B1 was tested, and the binding was “binds”.

From patent US20190330334A1 (KAO, published 2019)
